System: BY2 suspension cells
Experiment: Effects of colchicine on growth and cell separation of BY2 suspension cells
Type: cell-based, tobacco
Excerpt: BY2 suspension-cultured cells were obtained from Japan tobacco and maintained in LSBY2 medium in a 7 day cycle. Jimsonweed suspension and Pettite Havana tobacco suspensions were initiated from callus initiated at DAS and Xanthi suspensions were procured as a sample from Professor Jack Widholm from UIUC, IL. JT-NT1 suspension cells, obtained from Washington University that are maintained in NT1B medium in 7 day cycle were used only for the pectin degradation enzyme study to separate the cells into single cells. The cells were cultured in shake flasks at 25-28° C. in dark on orbital shakers at 150 rpm. […] The NT-1 cell line is widely used and readily available; though, any tobacco suspension cell line is consistent with the practice of the invention. […]
Cell expansion and separation were observed by light microscopy (with Nomarski and dark field optics). Spherical cells and single cells were counted by using a hemacytometer to determine the degree of cell expansion and separation, respectively. Cell numbers in aggregates were determined by treating with 5% (wt/vol) chromium trioxide for 16 hr and counting cells (Henshaw et. al, 1966). Cell viability was determined by staining cells (Yokoyama et. al, 1997) with fluorescein diacetate (FDA) and propidium iodide (PI) using a fluorescent microscope (Zeiss Photomicroscope). […]

## COc1cc2c(c(OC)c1OC)-c1ccc(OC)c(=O)cc1[C@@H](NC(C)=O)CC2 [Colchicine]
  cell swelling first observed: 3 days
1 mM
  time of continuous growth in the presence of colchicine: at least 14 days

— patent US8206983B2, “In vitro methods for the induction and maintenance of plant cell lines as single suspension cells with intact cell walls” (Dow AgroSciences, LLC., priority 2006, dated 2012)
